Data as given in PubChem BioAssay AID1259308 (NCATS, 2017)
Purpose: 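Knock-downs that increase output of a recombinant reporter protein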 (primary screen). Cells: human HEK293 embryonic kidney cells stably expressing firefly luciferase (HEK-CMV-Luc2-Hygro). Reagents: single siRNA against human genes, 0.8 pmol siRNA per well. Time to read-out: 72 h. Measured: 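Luciferase light (ONE-Glo) measured on one replicate plate set and viability (CellTiter-Glo) on the other, scaled to a negative control siRNA, with robust z-scores and luciferase per cell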. Scale: total luciferase, z-score and total luciferase, % of control: higher = more reporter protein produced. Hit rule: 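An siRNA counts as active if its total luciferase robust z-score exceeds 3; genes with two or more such siRNAs out of three were retested with fresh siRNAs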. Meaning of the calls: active = raised luciferase; inactive = no rise.
The deposit covers about 59,000 reagents; this is an unselected part. Of all reagents, about 1,510 (2.6%) are marked active. 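Calls use total luciferase alone and ignore viability, so some active siRNAs may act by altering cell number.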 Reagents against one gene are numbered here. Not all columns of the deposit are shown. Reagent sequences are not shown.

After knock-down of UPK3A (uroplakin 3A) #1, the screen gave total luciferase, z-score -0.22; total luciferase, % of control 77.5; inactive. UPK3A (uroplakin 3A) #2 showed total luciferase, z-score 0.42; total luciferase, % of control 90.2; inactive. Against UPK3A (uroplakin 3A) #3, the entry reads total luciferase, z-score 0.16; total luciferase, % of control 85.1; inactive. Against BCL10 (BCL10 immune signaling adaptor) #1, the values are total luciferase, z-score 1.8; total luciferase, % of control 118; inactive. Silencing of BCL10 (BCL10 immune signaling adaptor) #2 came out at: total luciferase, z-score -0.846; total luciferase, % of control 65.1; inactive. With knock-down of BCL10 (BCL10 immune signaling adaptor) #3 the results were total luciferase, z-score -0.351; total luciferase, % of control 74.9; inactive.

After knock-down of ANP32CP (acidic nuclear phosphoprotein 32 family member C, pseudogene) #1 the results were total luciferase, z-score -0.263; total luciferase, % of control 76.7; inactive. Knock-down of ANP32CP (acidic nuclear phosphoprotein 32 family member C, pseudogene) #2 came out at: total luciferase, z-score 0.81; total luciferase, % of control 98; inactive. After knock-down of ANP32CP (acidic nuclear phosphoprotein 32 family member C, pseudogene) #3, the screen gave total luciferase, z-score -0.574; total luciferase, % of control 70.5; inactive. For TMC7 (transmembrane channel like 7) #1 the deposit lists total luciferase, z-score -0.454; total luciferase, % of control 72.8; inactive. Against TMC7 (transmembrane channel like 7) #2, the values are total luciferase, z-score -0.486; total luciferase, % of control 72.2; inactive. TMC7 (transmembrane channel like 7) #3 scored total luciferase, z-score 2.23; total luciferase, % of control 126; inactive.

After knock-down of RGS20 (regulator of G protein signaling 20) #1 the results were total luciferase, z-score 2.32; total luciferase, % of control 128; inactive. With knock-down of RGS20 (regulator of G protein signaling 20) #2, the screen gave total luciferase, z-score -0.334; total luciferase, % of control 75.2; inactive. After knock-down of RGS20 (regulator of G protein signaling 20) #3, the record shows total luciferase, z-score 0.47; total luciferase, % of control 91.2; inactive. Depletion of MSH2-OT1 (MSH2 overlapping transcript 1) #1 resulted in: total luciferase, z-score 5.94; total luciferase, % of control 200; active. Against MSH2-OT1 (MSH2 overlapping transcript 1) #2, the entry reads total luciferase, z-score 0.302; total luciferase, % of control 87.9; inactive. Silencing of MSH2-OT1 (MSH2 overlapping transcript 1) #3 came out at: total luciferase, z-score 2.78; total luciferase, % of control 137; inactive.

With knock-down of TMEM247 (transmembrane protein 247) #1, the record shows total luciferase, z-score 1.06; total luciferase, % of control 103; inactive. After knock-down of TMEM247 (transmembrane protein 247) #2, the record shows total luciferase, z-score 0.118; total luciferase, % of control 84.2; inactive. For TMEM247 (transmembrane protein 247) #3, the values are total luciferase, z-score -1.37; total luciferase, % of control 54.6; inactive. Depletion of DKC1 (dyskerin pseudouridine synthase 1) #1 came out at: total luciferase, z-score 0.706; total luciferase, % of control 95.9; inactive. Silencing of DKC1 (dyskerin pseudouridine synthase 1) #2 gave: total luciferase, z-score -0.871; total luciferase, % of control 64.6; inactive. Silencing of DKC1 (dyskerin pseudouridine synthase 1) #3 resulted in: total luciferase, z-score -0.509; total luciferase, % of control 71.8; inactive.

STAC (SH3 and cysteine rich domain) #1 scored total luciferase, z-score -0.596; total luciferase, % of control 70; inactive. After knock-down of STAC (SH3 and cysteine rich domain) #2 the results were total luciferase, z-score -0.653; total luciferase, % of control 68.9; inactive. With knock-down of STAC (SH3 and cysteine rich domain) #3 the results were total luciferase, z-score -0.166; total luciferase, % of control 78.6; inactive. With knock-down of ATP5PO (ATP synthase peripheral stalk subunit OSCP) #1 the results were total luciferase, z-score -0.43; total luciferase, % of control 73.3; inactive. Depletion of ATP5PO (ATP synthase peripheral stalk subunit OSCP) #2 resulted in: total luciferase, z-score 0.469; total luciferase, % of control 91.2; inactive. ATP5PO (ATP synthase peripheral stalk subunit OSCP) #3 showed total luciferase, z-score -0.378; total luciferase, % of control 74.4; inactive.

With knock-down of LYPLA2 (lysophospholipase 2) #1, the screen gave total luciferase, z-score 1.28; total luciferase, % of control 107; inactive. After knock-down of LYPLA2 (lysophospholipase 2) #2 the results were total luciferase, z-score 1.13; total luciferase, % of control 104; inactive. With knock-down of LYPLA2 (lysophospholipase 2) #3 the results were total luciferase, z-score 0.189; total luciferase, % of control 85.6; inactive.
